# In article PMC7346168:
# Results are given in words; binding and its absence hold for the method and conditions named. Binding seen in cells or lysates may run through a third protein. Here binding means that the protein was enriched with, or labelled near, the bait; the list need not be complete.
# T1: 2-CysPRXA C54S (pseudo-reduced variant) (Arabidopsis) (UniProt Q96291)
# T1 sequence: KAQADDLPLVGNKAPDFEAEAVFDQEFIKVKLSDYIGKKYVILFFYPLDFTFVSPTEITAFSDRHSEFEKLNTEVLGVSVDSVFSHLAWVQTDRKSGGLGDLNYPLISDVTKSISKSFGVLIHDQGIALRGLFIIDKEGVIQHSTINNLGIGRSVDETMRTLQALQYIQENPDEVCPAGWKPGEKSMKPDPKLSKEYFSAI
# T2: 2-cysteine peroxiredoxin A, wild type (2-CysPRXA WT) (Arabidopsis) (UniProt Q96291)
# T2 sequence: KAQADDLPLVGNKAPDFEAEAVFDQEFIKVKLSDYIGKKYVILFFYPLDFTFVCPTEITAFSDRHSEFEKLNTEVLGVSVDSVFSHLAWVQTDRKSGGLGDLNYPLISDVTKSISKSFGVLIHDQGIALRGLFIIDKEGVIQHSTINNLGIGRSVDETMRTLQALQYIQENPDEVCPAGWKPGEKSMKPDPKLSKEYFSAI
# Molecular target: T1, 2-CysPRXA C54S (pseudo-reduced variant) (Arabidopsis)
# Assay: affinity purification with mass spectrometry; oxidizing: his6-tagged 2-CysPRXA variant (3 mg) on Ni-NTA-agarose pretreated with 1 mM H2O2; leaf extract (50 mg protein) made with 1 mM H2O2; 50 mM HEPES pH 8.0, 1 h, 4 °C; stepwise elution with 1 M NaCl, 10 mM DTT, 250 mM imidazole; hits not found on the column without 2-CysPRX; only the target purified
row,binding,Binder
1,binds,"50S ribosomal protein L5 (protein, UniProt O04603 40-262) VSASGTVLVEKSEAEKTQRLKTAYLERIIPALKEEFKYVNIHQVPKVQKIVVNCGIGDAAQNDKGLEAAMKDIALITGQKPIKTRARASIATFKIREDQPLGIAVTLRGDVMYSFLDRLINLALPRTRDFQGVSPSSFDGNGNYSIGVKDQGVFPEIRFDAVGKTRGMDVCISTTAKSDQEGQKLLALMGMPFREGGGGSTGAIVRKKKLKSHHFDAKGKGKR"
2,binds,"NADP-dependent malic enzyme 2 (protein, UniProt Q9LYG3 1-588) MGSTPTDLPGEDVADNRSGVGGGISDVYGEDSATLDQLVTPWVTSVASGYTLMRDPRYNKGLAFTDKERDAHYLTGLLPPVILSQDVQERKVMHNLRQYTVPLQRYMALMDLQERNERLFYKLLIDNVEELLPVVYTPTVGEACQKYGSIFRKPQGLYISLNEKGKILEVLKNWPQRGIQVIVVTDGERILGLGDLGCQGMGIPVGKLSLYTALGGIRPSACLPITIDVGTNNEKLLNDEFYIGLKQRRATGQEYAEFLHEFMCAVKQNYGEKVLVQFEDFANHNAFDLLSKYSDSHLVFNDDIQGTASVVLAGLIAAQKVLGKKLADHTFLFLGAGEAGTGIAELIALKISKETGAPITETRKKIWLVDSKGLIVSSRKESLQHFKQPWAHEHKPVKDLIGAVNAIKPTVLIGTSGVGQTFTKEVVEAMATNNEKPLILALSNPTSQAECTAEQAYTWTKGRAIFGSGSPFDPVVYDGKTYLPGQANNCYIFPGLGLGLIMSGAIRVRDDMLLAASEALAAQVTEEHYANGLIYPPFSNIREISANIAACVAAKTYDLGLASNLPRAKDLVKFAESSMYSPVYRNYR"
3,binds,"30S ribosomal protein S10 (protein, UniProt Q9LK61 57-191) AVPDTLDPTPEILDEPASEVPSSSSISVDADKMAPKQKIRIKLRSYWVPLIEDSCKQILDAARNTNAKTMGPVPLPTKKRIYCVLKSPHVHKDARFHFEIRTHQRMIDILYPTAQTIDSLMQLDLPAGVDVEVKL"
4,binds,"MECDP synthase (protein, UniProt Q9CAK8 53-231) AASSAVDVNESVTSEKPTKTLPFRIGHGFDLHRLEPGYPLIIGGIVIPHDRGCEAHSDGDVLLHCVVDAILGALGLPDIGQIFPDSDPKWKGAASSVFIKEAVRLMDEAGYEIGNLDATLILQRPKISPHKETIRSNLSKLLGADPSVVNLKAKTHEKVDSLGENRSIAAHTVILLMKK"
5,binds,"Monodehydroascorbate reductase 6 (protein, UniProt P92947 52-493) VTASFANENREFVIVGGGNAAGYAARTFVENGMADGRLCIVTKEAYAPYERPALTKAYLFPPEKKPARLPGFHTCVGGGGERQTPDWYKEKGIEVIYEDPVAGADFEKQTLTTDAGKQLKYGSLIIATGCTASRFPDKIGGHLPGVHYIREVADADSLIASLGKAKKIVIVGGGYIGMEVAAAAVAWNLDTTIVFPEDQLLQRLFTPSLAQKYEELYRQNGVKFVKGASINNLEAGSDGRVSAVKLADGSTIEADTVVIGIGAKPAIGPFETLAMNKSIGGIQVDGLFRTSTPGIFAIGDVAAFPLKIYDRMTRVEHVDHARRSAQHCVKSLLTAHTDTYDYLPYFYSRVFEYEGSPRKVWWQFFGDNVGETVEVGNFDPKIATFWIESGRLKGVLVESGSPEEFQLLPKLARSQPLVDKAKLASASSVEEALEIAQAALQS"
6,binds,"HTPA reductase 1 (protein, UniProt O80574 52-347) SMTAMADSGEEAVKSVLPGNGISIMVNGCSGKMGKAVIKAADSAGVNIVPISFGSAGEDGQRVEVCGKEITVHGPTEREKVLSSVFEKHPELIVVDYTIPSAVNDNAELYSKVGVPFVMGTTGGDRNKLYETVEEAKIYAVISPQMGKQVVAFLAAMEIMAEQFPGAFSGYSLDVMESHQASKLDASGTAKAVISCFQELGVSYDMDQIQLIRDPKQQVEMVGVPEEHISGHAFHLYHLTSPDETVSFEFQHNVCGRSIYAEGTVDAVLFLAKKIRLKADQRIYNMIDVLREGNMR"
7,binds,"50S ribosomal protein L27 (protein, UniProt Q9FLN4 59-198) AHKKGAGSTKNGRDSPGQRLGVKIYGDQVAKPGAIIVRQRGTKFHAGKNVGIGKDHTIFSLIDGLVKFEKFGPDRKKISVYPREIVPENPNSYRARKRENFRLQREKKKARRENYSYTLPTPELVLASASVDDAEANPEC"

# Molecular target: T2, 2-cysteine peroxiredoxin A, wild type (2-CysPRXA WT) (Arabidopsis)
# Assay: affinity purification with mass spectrometry; reducing: his6-tagged 2-CysPRXA variant (3 mg) on Ni-NTA-agarose pretreated with 10 mM DTT; leaf extract (50 mg protein) made with 10 mM DTT; 50 mM HEPES pH 8.0, 1 h, 4 °C; stepwise elution with 1 M NaCl, 10 mM DTT, 250 mM imidazole; hits not found on the column without 2-CysPRX; only the target purified
row,binding,Binder
1,binds,"PLAT domain-containing protein 1 (protein, UniProt O65660 15-181) ATVSAVAFAEDDPDCVYTFYLRTGSIWKAGTDSIISARIYDKDGDYIGIKNLQAWAGLMGPDYNYFERGNLDIFSGRAPCLPSPICALNLTSDGSGDHHGWYVNYVEITTAGVHAQCSTQDFEIEQWLATDTSPYELTAVRNNCPVKLRDSVSRVGSEIRKKLSWVV"
2,binds,"Transketolase-1 (protein, UniProt Q8RWV0 67-741) AAVETVEPTTDSSIVDKSVNSIRFLAIDAVEKAKSGHPGLPMGCAPMAHILYDEVMRYNPKNPYWFNRDRFVLSAGHGCMLLYALLHLAGYDSVQEEDLKQFRQWGSKTPGHPENFETPGIEVTTGPLGQGIANAVGLALAEKHLAARFNKPDAEVVDHYTYAILGDGCQMEGISNEACSLAGHWGLGKLIAFYDDNHISIDGDTEIAFTENVDQRFEALGWHVIWVKNGNTGYDEIRAAIKEAKTVTDKPTLIKVTTTIGYGSPNKANSYSVHGAALGEKEVEATRNNLGWPYEPFQVPDDVKSHWSRHTPEGATLESDWSAKFAAYEKKYPEEASELKSIITGELPAGWEKALPTYTPESPGDATRNLSQQCLNALAKVVPGFLGGSADLASSNMTLLKAFGDFQKATPEERNLRFGVREHGMGAICNGIALHSPGLIPYCATFFVFTDYMRGAMRISALSEAGVIYVMTHDSIGLGEDGPTHQPIEHIASFRAMPNTLMFRPADGNETAGAYKIAVTKRKTPSILALSRQKLPHLPGTSIEGVEKGGYTISDDSSGNKPDVILIGTGSELEIAAQAAEVLRKDGKTVRVVSFVCWELFDEQSDEYKESVLPSDVSARVSIEAASTFGWGKIVGGKGKSIGINSFGASAPAPLLYKEFGITVEAVVDAAKSFF"
3,binds,"Single-stranded DNA-binding protein WHY1 (protein, UniProt Q9M9S3 48-263) LFSVKSRQTDYFEKQRFGDSSSSPSPAEGLPARFYVGHSIYKGKAALTVDPRAPEFVALDSGAFKLSKDGFLLLQFAPSAGVRQYDWSKKQVFSLSVTEIGTLVSLGPRESCEFFHDPFKGKSDEGKVRKVLKVEPLPDGSGHFFNLSVQNKLVNVDESIYIPITRAEFAVLISAFNFVLPYLIGWHAFANSIKPEETSRVNNASPNYGGDYEWNR"
4,binds,"Sulfiredoxin (protein, UniProt Q8GY89 23-125) NGSPPVIGGSSGGVGPMIVELPLEKIRRPLMRTRSNDQNKVKELMDSIRQIGLQVPIDVIEVDGTYYGFSGCHRYEAHQKLGLPTIRCKIRKGTKETLRHHLR"
5,binds,"Pyruvate dehydrogenase E1 subunit beta-3 (protein, UniProt O64688 71-406) ADTAASSTSSKPGHELLLFEALQEGLEEEMDRDPHVCVMGEDVGHYGGSYKVTKGLADKFGDLRVLDTPICENAFTGMGIGAAMTGLRPVIEGMNMGFLLLAFNQISNNCGMLHYTSGGQFTIPVVIRGPGGVGRQLGAEHSQRLESYFQSIPGIQMVACSTPYNAKGLMKAAIRSENPVILFEHVLLYNLKESIPDEEYICNLEEAEMVRPGEHITILTYSRMRYHVMQAAKTLVNKGYDPEVIDIRSLKPFDLYTIGNSVKKTHRVLIVEECMRTGGIGASLTAAINENFHDYLDAPVMCLSSQDVPTPYAGTLEEWTVVQPAQIVTAVEQLCQ"

# Second part, the binder before the results:
row,Binder,binding
1,"Delta-aminolevulinic acid dehydratase 1 (protein, UniProt Q9SFH9 53-430) ASESGNGHAKKLGMSDAECEAAVAAGNVPEAPPVPPKPAAPVGTPIIKPLNLSRRPRRNRASPVTRAAFQETDISPANFVYPLFIHEGEEDTPIGAMPGCYRLGWRHGLVQEVAKARAVGVNSIVLFPKVPEALKNSTGDEAYNDNGLVPRTIRLLKDKYPDLIIYTDVALDPYSSDGHDGIVREDGVIMNDETVHQLCKQAVSQARAGADVVSPSDMMDGRVGAIRSALDAEGFQNVSIMSYTAKYASSFYGPFREALDSNPRFGDKKTYQMNPANYREALIEAREDEAEGADILLVKPGLPYLDIIRLLRDKSPLPIAAYQVSGEYSMIKAGGVLKMIDEEKVMMESLMCLRRAGADIILTYFALQAATCLCGEKR",binds
2,"50S ribosomal protein L29 (protein, UniProt Q9FJP3 61-173) SKREAELKEIRSKTTEQLQEEVVDLKGELFMLRLQKSARNEFKSSDFRRMKKQVARMLTVKREREIKEGIKKRLSRKLDRQWKKSIVPRPPPSLKKLQEEEAAEEAAEAAKSA",binds
3,"CDPME kinase (protein, UniProt O81014 73-383) LKLFSPCKINVFLRITGKREDGFHDLASLFHVISLGDTIKFSLSPSKSKDRLSTNVQGVPVDGRNLIIKALNLYRKKTGSNRFFWIHLDKKVPTGAGLGGGSSNAATALWAANELNGGLVTENELQDWSSEIGSDIPFFFSHGAAYCTGRGEIVQDLPPPFPLDLPMVLIKPREACSTAEVYKRLRLDQTSNINPLTLLENVTSNGVSQSICVNDLEPPAFSVLPSLKRLKQRIIASGRGEYDAVFMSGSGSTIIGIGSPDPPQFIYDDEEYKNVFLSEANFMTREANEWYKEPASANATTSSAESRMDFQ",binds
